Results: patent US20050256051A1, “Nuclear receptor-mediated introduction of a PNA into cell nuclei” (The Population Council, Inc., priority 2001, published 2005)

Legend:
LNCaP cells = test: Cellular localization of rhodaminated PNAs by confocal fluorescence/phase contrast microscopy in LNCaP cells; format: cell-based, human; details: 2 μM, 24 h
DU145 cells = test: Cellular localization of rhodaminated PNAs by confocal fluorescence/phase contrast microscopy in DU145 cells; format: cell-based, human; details: 2 μM; for cellular localization of fluorescence: 24 h, confocal microscopy

Structure (SMILES) | cellular localization of fluorescence (LNCaP cells) | cellular localization of fluorescence (LNCaP cells; listed as PNAmyc-R) | cellular localization of fluorescence (DU145 cells) | cellular localization of fluorescence (DU145 cells; listed as PNAmyc-R) | cellular localization of fluorescence (LNCaP cells; listed as PNAmyc-TR) | fluorescence compared with matching PNA-mycwt-R (DU145 cells) | cellular localization of fluorescence (DU145 cells; listed as PNAmyc-TR)
CCN(CC)c1ccc2c(-c3ccccc3C(=O)NCCCC[C@H](NC(=O)COCCOCCNC(=O)CN(CCNC(=O)CN(CCNC(=O)CN(CCNC(=O)CN(CCNC(=O)CN(CCNC(=O)CN(CCNC(=O)CN(CCNC(=O)CN(CCNC(=O)CN(CCNC(=O)CN(CCNC(=O)CN(CCNC(=O)CN(CCNC(=O)CN(CCNC(=O)CN(CCNC(=O)CN(CCNC(=O)CN(CCNC(=O)CN(CCN)C(=O)Cn3cc(C)c(=O)[nH]c3=O)C(=O)Cn3ccc(N)nc3=O)C(=O)Cn3cnc4c(N)ncnc43)C(=O)Cn3cnc4c(N)ncnc43)C(=O)Cn3ccc(N)nc3=O)C(=O)Cn3cnc4c(=O)[nH]c(N)nc43)C(=O)Cn3cc(C)c(=O)[nH]c3=O)C(=O)Cn3cc(C)c(=O)[nH]c3=O)C(=O)Cn3cnc4c(N)ncnc43)C(=O)Cn3cnc4c(=O)[nH]c(N)nc43)C(=O)Cn3ccc(N)nc3=O)C(=O)Cn3cc(C)c(=O)[nH]c3=O)C(=O)Cn3cc(C)c(=O)[nH]c3=O)C(=O)Cn3ccc(N)nc3=O)C(=O)Cn3cnc4c(N)ncnc43)C(=O)Cn3ccc(N)nc3=O)C(=O)Cn3ccc(N)nc3=O)C(=O)NCC(N)=O)c3ccc(=[N+](CC)CC)cc-3oc2c1 [PNA-mycwt-R] | cytoplasmic localization | only in the cytoplasm | entirely cytoplasmic | only in the cytoplasm |  |  | 
CCN(CC)c1ccc2c(-c3ccccc3C(=O)NCCCC[C@H](NC(=O)COCCOCCNC(=O)CN(CCNC(=O)CN(CCNC(=O)CN(CCNC(=O)CN(CCNC(=O)CN(CCNC(=O)CN(CCNC(=O)CN(CCNC(=O)CN(CCNC(=O)CN(CCNC(=O)CN(CCNC(=O)CN(CCNC(=O)CN(CCNC(=O)CN(CCNC(=O)CN(CCNC(=O)CN(CCNC(=O)CN(CCNC(=O)CN(CCNC(=O)COCCOCCNC(=O)CCC(=O)O[C@H]3CC[C@H]4[C@@H]5CC[C@H]6CC(=O)CC[C@]6(C)[C@H]5CC[C@]34C)C(=O)Cn3cc(C)c(=O)[nH]c3=O)C(=O)Cn3ccc(N)nc3=O)C(=O)Cn3cnc4c(N)ncnc43)C(=O)Cn3cnc4c(N)ncnc43)C(=O)Cn3ccc(N)nc3=O)C(=O)Cn3cnc4c(=O)[nH]c(N)nc43)C(=O)Cn3cc(C)c(=O)[nH]c3=O)C(=O)Cn3cc(C)c(=O)[nH]c3=O)C(=O)Cn3cnc4c(N)ncnc43)C(=O)Cn3cnc4c(=O)[nH]c(N)nc43)C(=O)Cn3ccc(N)nc3=O)C(=O)Cn3cc(C)c(=O)[nH]c3=O)C(=O)Cn3cc(C)c(=O)[nH]c3=O)C(=O)Cn3ccc(N)nc3=O)C(=O)Cn3cnc4c(N)ncnc43)C(=O)Cn3ccc(N)nc3=O)C(=O)Cn3ccc(N)nc3=O)C(=O)NCC(N)=O)c3ccc(=[N+](CC)CC)cc-3oc2c1 [PNA-mycwt-TR] | clearly detectable in the cell nuclei |  | entirely cytoplasmic |  | in nuclei as well as in cytoplasm | far weaker | minimal and exclusively cytoplasmic
